PubChem BioAssay AID1259405, NCATS – 2018

Aim: 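Knock-downs that lift recombinant protein yield in hamster ovary cells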 (primary screen)
Cell system: Chinese hamster CHO-K1 ovary cells with stable secreted eGFP expression
Reagents: single siRNA against mouse genes, 0.8 pmol siRNA per well (2 µl of 400 nM stock)
Duration: 3 days
Read-out: 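Per-well intracellular GFP measured by laser scanning cytometry, plus viability from ATP luminescence, each relative to plate median of non-targeting control wells, in %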
Scale: GFP, % of control: higher = more GFP per well, higher productivity; viability (ATP), % of control: higher = more viable cells (more ATP)
Call rule: 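Called active when intracellular GFP, relative to negative control, is at or above 120%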
The whole screen tested about 50,000 reagents; shown is a random part of them. About 4,000 of them (8%) were called active. 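Mouse siRNA library applied to hamster cells; one well for each siRNA.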 Reagents against one gene are numbered here.

target	siRNA no.	GFP, % of control	viability (ATP), % of control	call
Tspyl4	1	47.7	46.9	inactive
Tspyl4	2	83.3	91.8	inactive
Tspyl4	3	93	45.4	inactive
Kiss1	1	61.7	72	inactive
Kiss1	2	49	65.8	inactive
Kiss1	3	138	80.4	active
Sccpdh	1	80.8	121	inactive
Sccpdh	2	23.9	18.9	inactive
Sccpdh	3	101	118	inactive
Klhl11	1	87.8	96.4	inactive
Klhl11	2	91.8	84.9	inactive
Klhl11	3	108	84.2	inactive
Dmac2l	1	101	62.2	inactive
Dmac2l	2	64	66	inactive
Dmac2l	3	73.7	74.2	inactive
Henmt1	1	52.7	25.8	inactive
Henmt1	2	86.3	65.9	inactive
Henmt1	3	92.4	95.3	inactive
Gabrb1	1	86.2	107	inactive
Gabrb1	2	55	48.9	inactive
Gabrb1	3	29.3	22	inactive
Emp3	1	73.1	60	inactive
Emp3	2	73.4	77.7	inactive
Emp3	3	37.9	51	inactive
Pef1	1	57.3	86.8	inactive
Pef1	2	99.5	88.4	inactive
Maml1	1	59.6	40.5	inactive
Maml1	2	42.8	42.8	inactive
Maml1	3	72.8	54.1	inactive
Smim48	1	101	59.3	inactive
Smim48	2	94.2	91.9	inactive
Smim48	3	97.1	73.3	inactive
Adrb2	1	108	95.3	inactive
Adrb2	2	72.4	59	inactive
Adrb2	3	70.6	78.7	inactive
Pafah1b1	1	89.8	107	inactive
Pafah1b1	2	106	77.6	inactive
Pafah1b1	3	29.4	31.3	inactive
Golga7	1	61.9	54.9	inactive
Golga7	2	134	54.8	active
Golga7	3	91	79.9	inactive
Gopc	1	92.7	89.5	inactive
Gopc	2	66.6	80.4	inactive
Gopc	3	82.3	93.6	inactive
Ppp1r1c	1	139	82.1	active
Ppp1r1c	2	64.5	34.3	inactive
Ppp1r1c	3	93	68.3	inactive
Pirb	1	64	61.2	inactive
Pirb	2	58.6	70.4	inactive
Pirb	3	97	71.4	inactive
Adgrg3	1	95.5	92.2	inactive
Adgrg3	2	115	75.7	inactive
Adgrg3	3	49.5	37.9	inactive
Inhbc	1	24.5	34.2	inactive
Inhbc	2	54.8	71.3	inactive
Inhbc	3	56.6	68.2	inactive
Ift52	1	56.8	56.6	inactive
Ift52	2	50.3	51.4	inactive
Ift52	3	76.6	62.8	inactive
Trim9	1	57.7	49.6	inactive
Trim9	2	30.1	56.9	inactive
Trim9	3	88.9	75.1	inactive
Dkk4	1	72	57.7	inactive
Dkk4	2	62.1	73	inactive
Dkk4	3	90.4	46.5	inactive
Arl5a	1	61.7	68.4	inactive
Arl5a	2	95.4	75.5	inactive
Arl5a	3	58.8	69.2	inactive
Mus81	1	57.4	68.7	inactive
Mus81	2	168	55.5	active
Mus81	3	58.7	68.9	inactive
Mus81	4	91.8	99.8	inactive
Mus81	5	120	70.4	active
Mus81	6	85.3	78.7	inactive
Siva1	1	46.6	57.1	inactive
Siva1	2	57.6	39.8	inactive
Bcl10	1	23.7	58.4	inactive
Bcl10	2	81.3	101	inactive
Bcl10	3	160	159	active
Arhgap29	1	116	100	inactive
Arhgap29	2	102	100	inactive
Rbm5	1	123	96.7	active
Rbm5	2	85.4	84	inactive
Pstpip1	1	120	102	active
Pstpip1	2	92.9	73	inactive
Eif2b2	1	86.2	74.8	inactive
Eif2b2	2	79.1	104	inactive
Eif2b2	3	63.5	64.2	inactive
Lrrc66	1	119	87.8	inactive
Lrrc66	2	69.9	78.6	inactive
Lrrc66	3	62.7	75.5	inactive
Tacstd2	1	105	37.2	inactive
Tacstd2	2	81.5	51.2	inactive
Tacstd2	3	72.9	54.7	inactive
Smpd2	1	93.2	101	inactive
Smpd2	2	41.6	62.4	inactive
Smpd2	3	81.6	67.2	inactive
Rsad2	1	51.1	53.9	inactive
Rsad2	2	61.6	58.9	inactive
Rsad2	3	89.9	70.7	inactive
Pfn1	1	120	97.9	inactive
Pfn1	2	105	47.7	inactive
Pfn1	3	84.9	105	inactive
Or1j15	1	90.6	76.7	inactive
Or1j15	2	127	58.3	active
Or1j15	3	52.6	63	inactive
Kifc2	1	149	123	active
Kifc2	2	84.8	47.3	inactive
